Experimental data published in PMC11157767 (Molecular Cancer, 2024).
This continues a long series; more values of the same kind are listed elsewhere.

Test system: TFG-MET allograft tumors
Experiment: RNA-sequencing, differential expression and GSEA of TFG-MET allograft tumors
Format: in vivo, mouse
Details: CAP v Veh
Experimental: Error bars display standard error of mean, statistical significance was determined using t-test analysis. (****;p<0.0001, ***;p<0.001, **;p<0.01, *;p<0.05). […] Each dot represents an individual replicate. Error bars display standard error of the mean.
Each dot represents one gene.

## CNC(=O)c1ccc(-c2cnc3ncc(Cc4ccc5ncccc5c4)n3n2)cc1F [Capmatinib]
GOMF_PEPTIDE_RECEPTOR_ACTIVITY, padj 0.0807945
  NES: 1.3812
GOMF_PHOSPHOLIPASE_ACTIVITY
  ES: 0.381
GOMF_PHOSPHOLIPASE_ACTIVITY, padj 0.0022957
  NES: 1.892
GOMF_PHOSPHOPROTEIN_PHOSPHATASE_ACTIVITY
  ES: -0.3191
GOMF_PHOSPHOPROTEIN_PHOSPHATASE_ACTIVITY, padj 0.096235
  NES: -1.393
GOMF_PRE_MRNA_BINDING
  ES: -0.588
GOMF_PRE_MRNA_BINDING, padj 0.000682986
  NES: -2.009
GOMF_PROTEIN_METHYLTRANSFERASE_ACTIVITY
  ES: -0.4731
GOMF_PROTEIN_METHYLTRANSFERASE_ACTIVITY, padj 0.00174921
  NES: -1.856
GOMF_PROTEIN_SERINE_KINASE_ACTIVITY
  ES: -0.3713
GOMF_PROTON_TRANSMEMBRANE_TRANSPORTER_ACTIVITY
  ES: 0.4534
GOMF_PROTON_TRANSMEMBRANE_TRANSPORTER_ACTIVITY, padj 1.02839e-6
  NES: 2.257
GOMF_REPRESSING_TRANSCRIPTION_FACTOR_BINDING
  ES: -0.3874
GOMF_REPRESSING_TRANSCRIPTION_FACTOR_BINDING, padj 0.0966247
  NES: -1.493
GOMF_RIBONUCLEASE_ACTIVITY
  ES: -0.4982
GOMF_RIBONUCLEASE_ACTIVITY, padj 9.12556e-6
  NES: -2.0504
GOMF_RIBOSOMAL_SMALL_SUBUNIT_BINDING
  ES: -0.7352
GOMF_RIBOSOMAL_SMALL_SUBUNIT_BINDING, padj 0.000365194
  NES: -2.088
GOMF_RIBOSOME_BINDING
  ES: -0.5268
GOMF_RIBOSOME_BINDING, padj 0.00104755
  NES: -1.943
GOMF_RNA_CAP_BINDING
  ES: -0.7315
GOMF_RNA_CAP_BINDING, padj 0.00133141
  NES: -2.04
GOMF_RNA_HELICASE_ACTIVITY
  ES: -0.6195
GOMF_RNA_HELICASE_ACTIVITY, padj 1.06457e-8
  NES: -2.418
GOMF_RNA_METHYLTRANSFERASE_ACTIVITY
  ES: -0.6408
GOMF_RNA_POLYMERASE_ACTIVITY
  ES: -0.6234
GOMF_RNA_POLYMERASE_ACTIVITY, padj 0.000114721
  NES: -2.14
GOMF_RNA_POLYMERASE_BINDING
  ES: -0.5124
GOMF_RNA_POLYMERASE_BINDING, padj 0.000995291
  NES: -1.928
GOMF_RNA_POLYMERASE_II_CORE_PROMOTER_SEQUENCE_SPECIFIC_DNA_BINDING
  ES: -0.566
GOMF_RNA_POLYMERASE_II_CORE_PROMOTER_SEQUENCE_SPECIFIC_DNA_BINDING, padj 0.0966247
  NES: -1.579
GOMF_RNA_POLYMERASE_II_GENERAL_TRANSCRIPTION_INITIATION_FACTOR_BINDING
  ES: -0.5325
GOMF_RNA_POLYMERASE_II_GENERAL_TRANSCRIPTION_INITIATION_FACTOR_BINDING, padj 0.0762355
  NES: -1.559
GOMF_RRNA_BINDING
  ES: -0.501
GOMF_RRNA_BINDING, padj 0.00144515
  NES: -1.884
GOMF_SEROTONIN_RECEPTOR_ACTIVITY
  ES: 0.4916
GOMF_SEROTONIN_RECEPTOR_ACTIVITY, padj 0.096438
  NES: 1.653
GOMF_SINGLE_STRANDED_DNA_BINDING
  ES: -0.4837
GOMF_SINGLE_STRANDED_DNA_BINDING, padj 4.12475e-5
  NES: -2.012
GOMF_SINGLE_STRANDED_DNA_HELICASE_ACTIVITY
  ES: -0.7063
GOMF_SINGLE_STRANDED_DNA_HELICASE_ACTIVITY, padj 0.000708609
  NES: -2.068
GOMF_SINGLE_STRANDED_RNA_BINDING
  ES: -0.5128
GOMF_SINGLE_STRANDED_RNA_BINDING, padj 9.34144e-5
  NES: -2.03
GOMF_SNRNA_BINDING
  ES: -0.5792
GOMF_SNRNA_BINDING, padj 0.000589704
  NES: -2.033
GOMF_SOLUTE_CATION_ANTIPORTER_ACTIVITY
  ES: 0.4133
GOMF_SOLUTE_CATION_ANTIPORTER_ACTIVITY, padj 0.0995416
  NES: 1.58
GOMF_STRUCTURAL_CONSTITUENT_OF_NUCLEAR_PORE
  ES: -0.7381
GOMF_STRUCTURAL_CONSTITUENT_OF_NUCLEAR_PORE, padj 3.19533e-5
  NES: -2.231
GOMF_TELOMERASE_RNA_BINDING
  ES: -0.6867
GOMF_TELOMERASE_RNA_BINDING, padj 0.000589704
  NES: -2.075
GOMF_TELOMERIC_DNA_BINDING
  ES: -0.5573
GOMF_TELOMERIC_DNA_BINDING, padj 0.00250145
  NES: -1.904
GOMF_TRANSCRIPTION_COACTIVATOR_ACTIVITY
  ES: -0.365
GOMF_TRANSCRIPTION_COACTIVATOR_ACTIVITY, padj 0.000678027
  NES: -1.663
GOMF_TRANSCRIPTION_COREGULATOR_ACTIVITY
  ES: -0.3862
GOMF_TRANSCRIPTION_COREGULATOR_ACTIVITY, padj 4.79178e-8
  NES: -1.829
GOMF_TRANSCRIPTION_COREPRESSOR_ACTIVITY
  ES: -0.4314
GOMF_TRANSCRIPTION_COREPRESSOR_ACTIVITY, padj 1.94061e-5
  NES: -1.895
GOMF_TRANSCRIPTION_FACTOR_BINDING
  ES: -0.3497
GOMF_TRANSFERASE_ACTIVITY_TRANSFERRING_ACYL_GROUPS
  ES: -0.2972
GOMF_TRANSFERASE_ACTIVITY_TRANSFERRING_ACYL_GROUPS, padj 0.0995416
  NES: -1.333
GOMF_TRANSFERASE_ACTIVITY_TRANSFERRING_ONE_CARBON_GROUPS
  ES: -0.5419
GOMF_TRANSFERASE_ACTIVITY_TRANSFERRING_ONE_CARBON_GROUPS, padj 6.40741e-14
  NES: -2.405
GOMF_TRANSFERASE_ACTIVITY_TRANSFERRING_PENTOSYL_GROUPS
  ES: -0.4359
GOMF_TRANSFERASE_ACTIVITY_TRANSFERRING_PENTOSYL_GROUPS, padj 0.0821726
  NES: -1.542
GOMF_TRANSFERASE_ACTIVITY_TRANSFERRING_PHOSPHORUS_CONTAINING_GROUPS
  ES: -0.2871
GOMF_TRANSFERASE_ACTIVITY_TRANSFERRING_PHOSPHORUS_CONTAINING_GROUPS, padj 0.00133141
  NES: -1.396
GOMF_TRANSLATION_FACTOR_ACTIVITY_RNA_BINDING
  ES: -0.5479
GOMF_TRANSLATION_FACTOR_ACTIVITY_RNA_BINDING, padj 4.01038e-6
  NES: -2.163
GOMF_TRANSLATION_INITIATION_FACTOR_ACTIVITY
  ES: -0.6039
GOMF_TRANSLATION_INITIATION_FACTOR_ACTIVITY, padj 1.62265e-5
  NES: -2.206
GOMF_TRANSLATION_INITIATION_FACTOR_BINDING
  ES: -0.5884
GOMF_TRANSLATION_INITIATION_FACTOR_BINDING, padj 0.00198095
  NES: -1.933
GOMF_TRANSLATION_REGULATOR_ACTIVITY_NUCLEIC_ACID_BINDING
  ES: -0.5424
GOMF_TRANSLATION_REGULATOR_ACTIVITY_NUCLEIC_ACID_BINDING, padj 7.97652e-8
  NES: -2.232
GOMF_TRANSLATION_REPRESSOR_ACTIVITY
  ES: -0.6184
GOMF_TRANSLATION_REPRESSOR_ACTIVITY, padj 0.00192115
  NES: -1.996
GOMF_TRNA_METHYLTRANSFERASE_ACTIVITY
  ES: -0.6719
GOMF_TRNA_METHYLTRANSFERASE_ACTIVITY, padj 3.26846e-5
  NES: -2.231
GOMF_ZINC_ION_BINDING
  ES: -0.3192
